Data as given in patent US10064928B2, “Peptides and combination of peptides for use in immunotherapy against CLL and other cancers” (IMMATICS BIOTECHNOLOGIES GMBH, priority 2015, dated 2018).

What was measured:
[1] = tested on: CLL samples compared to a panel of normal tissues; assay: Identification and label-free relative LC-MS quantitation of HLA-presented peptides (presentation profiles and scores); parameters: species or system human; key: very highly over-presented on tumors compared to a panel of normal tissues (+++); highly over-presented on tumors compared to a panel of normal tissues (++); over-presented on tumors compared to a panel of normal tissues (+); settings: presentation score; over-presentation on tumors (CLL samples) compared to a panel of normal tissues
[2] = tested on: other tumor types (e.g. non-Hodgkin lymphoma, lung cancer); assay: Presentation of the peptides on additional tumor types (LC-MS, Tables 4A/4B, FIG. 1); parameters: species or system human; settings: for Other relevant organs/diseases: Table 4A: additional tumor types where the peptide was over-presented on more than 5% of the measured tumor samples, or presented on more than 5% with ratio of geometric means tumor vs normal tissues larger than 3; for Additional Entities: Table 4B: additional tumour types with over-presentation (including specific presentation) on more than 5% of the measured tumour samples, or presentation on more than 5% with ratio of geometric means tumour vs normal tissues larger than 3, extended normal tissue panel

Substance | Peptide Presentation [1] | Other relevant organs/diseases [2] | Additional Entities [2]
225 (ILQERELLPV; listed as Homo sapiens) [compound 225] | + | NHL, Melanoma, OC, Urinary bladder cancer | 
137 (NLIKTVIKL; listed as Homo sapiens) [compound 137] | + | NHL | 
215 (VMQDIVYKL; listed as Homo sapiens) [compound 215] | + | NHL, Esophageal Cancer, Urinary bladder cancer | HNSCC
352 (ALVFELHYV; listed as Homo sapiens) [compound 352] | + | NHL | 
213 (RLLYQLVFL; listed as Homo sapiens) [compound 213] | ++ | NHL, Esophageal Cancer, Urinary bladder cancer, Gallbladder Cancer, Bile Duct Cancer | 
237 (GLQENLDVVV; listed as Homo sapiens) [compound 237] | + | SCLC, NHL, Melanoma, Uterine Cancer | AML
358 (FLTDYLNDL; listed as Homo sapiens) [compound 358] | + | NHL | AML
231 (FLYIRQLAI; listed as Homo sapiens) [compound 231] | + | AML | Uterine Cancer
245 (KIMDYSLLLGV; listed as Homo sapiens) [compound 245] | + | SCLC, RCC, OC | 
298 (IILPVEVEV; listed as Homo sapiens) [compound 298] | +++ | SCLC, NHL, AML, Urinary bladder cancer | CRC, HNSCC
238 (GLVETELQL; listed as Homo sapiens) [compound 238] | + | NHL, AML | 
292 (AAALIIHHV; listed as Homo sapiens) [compound 292] | + | Urinary bladder cancer | 
226 (AMNISVPQV; listed as Homo sapiens) [compound 226] | + |  | AML, PrC, Brain Cancer, Gallbladder Cancer, CCC, HNSCC, NHL, NSCLC, OC, SCLC, Uterine Cancer
328 (VLLPQETAEIHL; listed as Homo sapiens) [compound 328] | ++ | NHL, BRCA, Melanoma, OC, Urinary bladder cancer | 
382 (YLLPLLQRL; listed as Homo sapiens) [compound 382] | +++ | NHL, AML | 
190 (VVMGTVPRL; listed as Homo sapiens) [compound 190] | +++ | NHL, AML | Melanoma
114 (LIPEGPPQV; listed as Homo sapiens) [compound 114] | +++ |  | AML, HNSCC
81 (WLVGQEFEL; listed as Homo sapiens) [compound 81] | +++ | NHL | 

Substance | Peptide Presentation [1] | Other relevant organs/diseases [2] | Additional Entities [2]
249 (LLPTGVFQV; listed as Homo sapiens) [compound 249] | + | Urinary bladder cancer | 
229 (FLLNLQNCHL; listed as Homo sapiens) [compound 229] | ++ | NHL | 
8 (ALAASALPALV; listed as Homo sapiens) [compound 8] | +++ |  | AML, HNSCC
334 (YLLEEKIASL; listed as Homo sapiens) [compound 334] | +++ | NHL | AML
71 (GLKHDIARV; listed as Homo sapiens) [compound 71] | +++ | NHL | 
267 (TLLDWQDSL; listed as Homo sapiens) [compound 267] | + | NHL, AML, Melanoma | 
310 (LLSTLHLLV; listed as Homo sapiens) [compound 310] | + | NHL | 
157 (SLNIRDFTM; listed as Homo sapiens) [compound 157] | +++ | AML | 
379 (YLAELVTPIL; listed as Homo sapiens) [compound 379] | + | NSCLC, SCLC, NHL, Melanoma | HCC, BRCA, Uterine Cancer, AML, HNSCC
243 (ILPTLEKELFL; listed as Homo sapiens) [compound 243] | + | AML | 
86 (HLYPGAVTI; listed as Homo sapiens) [compound 86] | +++ | HCC, NHL | AML
19 (QVMEKLAAV; listed as Homo sapiens) [compound 19] | + | NHL | 
59 (FVFGDENGTVSL; listed as Homo sapiens) [compound 59] | +++ | NHL, Esophageal Cancer, Urinary bladder cancer, Uterine Cancer | SCLC, HNSCC
189 (VMLEMTPEL; listed as Homo sapiens) [compound 189] | +++ | SCLC, PC, NHL, BRCA, Melanoma, Gallbladder Cancer, Bile Duct Cancer | HNSCC
102 (IQDRAVPSL; listed as Homo sapiens) [compound 102] | +++ | AML | 
347 (YLGPVSPSL; listed as Homo sapiens) [compound 347] | + | NHL | 
64 (KLLESVASA; listed as Homo sapiens) [compound 64] | ++ | NHL | 
